Results as given in patent US20220243213A1, “ANTI-CRISPR INHIBITORS” (THE REGENTS OF THE UNIVERSITY OF CALIFORNIA, published 2022).
For some assays here: Negatives hold for the conditions tested. For some assays here: Tags and fusion partners may be left off the protein sequences shown. For some assays here: Weaker means in comparison with the reference protein, sequence or condition of that experiment. For some assays here: For at least one entry, the source does not settle the construct or the ends of the probe.

Key:
[1] = system: Aca1 (Pseudomonas aeruginosa phage JBD30); assay: EMSA; conditions: single shifted band only; purified recombinant protein; variant of acrIF1 promoter IR1-IR2 oligo WT
[2] = target: T1, Aca2 ZF40 (Pectobacterium phage ZF40) (UniProt H9C180); assay: activity in cells; conditions: no repression of non-cognate promoter; protein in cells
T1 sequence (looked up, limits assumed): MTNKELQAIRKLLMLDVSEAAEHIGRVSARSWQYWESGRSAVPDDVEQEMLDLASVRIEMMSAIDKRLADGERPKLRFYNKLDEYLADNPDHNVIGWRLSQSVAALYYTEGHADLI

[3] = system: T2, Aca3 (Neisseria meningitidis 2842STDY5881035); assay: activity in cells; conditions: protein in cells
T2 sequence: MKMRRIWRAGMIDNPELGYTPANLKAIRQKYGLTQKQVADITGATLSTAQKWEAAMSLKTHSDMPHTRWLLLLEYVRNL

ACAAGCGTCGTACTGTGCCTATTGCGAATTAGGCACAATGTGCCTAATCTAACG (double strand) [IR1 mutant oligo]
binding result [1]: binds more weakly

AATTGAATCCGCAATGGTGAAATATCGACAATGAACGACAATACACACACCCTTCCCCCGCGCCACCTGTCCGTCGCTCCCATGCTCGACTGTATCTACTGAAAAATAATATATTGAAAAATAATATATAATATATTTTTATTATTCTTATGGTGCAAATAAAGCACATTGTGCATTGGAAATAAAAACGGCAAATTAATTACCTTTGTTTTTAAAGGTTTATTAAATTGGCGGTTTTTTGTTTGAAAAAATGCTTGTGATACATCATTTTTTGATGTAGTATACACACATCGGCAGACAACAAGCCTGCCACCGACACCTTGACGGCTTCAAGGATAAACGAAAGGATTTCAAA (double strand) [Nme 2842STDY5881035 acrIIC3 upstream region]
activity on this sequence [2]: not active | activity on this sequence (fold repression) ([3]; lacZ reporter in E. coli, Aca3 with N-terminal extension): 20

ACAAGCGGCACACTGTGCCTATTGCGAGCTAGTCCCAATGTGCCTAATCTAACG (double strand) [IR2 mutant oligo]
binding result [1]: binds more weakly

AGCCTCACCTCCGGCGTTGCCGTGGCGCTGTGTGATTTACAGGAAATAAAAAGGCCACGAATGCGGCCTTAGCGATTAAAAAATATGAAATGCCTTGCTTGTTCGCGATTGCGAACATATAATTTATTCATCGGTTCGAG (double strand) [ZF40 acrIF8 promoter region]
activity on this sequence ([3]; no repression of non-cognate promoter): not active
